According to patent US20110244473A1:
Results are given in words; binding and its absence hold for the method and conditions named. In cells and extracts the contact can be indirect. Some results given as binding are weak or reduced against the parent protein; the word gives no strength.

Biological target: T1, Fas (human), P25445
T1 chain: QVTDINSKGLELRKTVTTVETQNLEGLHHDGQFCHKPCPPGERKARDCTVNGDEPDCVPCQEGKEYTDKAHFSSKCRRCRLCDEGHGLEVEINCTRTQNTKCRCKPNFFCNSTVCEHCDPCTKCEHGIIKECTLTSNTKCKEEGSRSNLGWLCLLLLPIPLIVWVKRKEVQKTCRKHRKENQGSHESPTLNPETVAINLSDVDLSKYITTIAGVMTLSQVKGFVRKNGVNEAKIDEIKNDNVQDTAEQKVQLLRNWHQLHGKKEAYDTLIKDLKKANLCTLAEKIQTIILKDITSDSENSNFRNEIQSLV
Experiment: DISC co-immunoprecipitation through the Flag-tagged ligand, immunoblot; BJAB cells on ice
Conditions: remark: other sources report otherwise

binding: binds
B1: FADD, Q13158 1-208 (protein, human, UniProt Q13158 1-208, looked up)
chain: MDPFLVLLHSVSSSLSSSELTELKFLCLGRVGKRKLERVQSGLDLFSMLLEQNDLEPGHTELLRELLASLRRHDLLRRVDDFEAGAAAGAAPGEEDLCAAFNVICDNVGKDWRRLARQLKVSDTKIDSIEDRYPRNLTERVRESLRIWKNTEKENATVAHLVGALRSCQMNLVADLVQEVQQARDLQNRSGAMSPMSWNSDASTSEAS
